# Publication PMC7875907
# Amino acid sequences for entries named in this document (tags omitted).
# UniProt P51784: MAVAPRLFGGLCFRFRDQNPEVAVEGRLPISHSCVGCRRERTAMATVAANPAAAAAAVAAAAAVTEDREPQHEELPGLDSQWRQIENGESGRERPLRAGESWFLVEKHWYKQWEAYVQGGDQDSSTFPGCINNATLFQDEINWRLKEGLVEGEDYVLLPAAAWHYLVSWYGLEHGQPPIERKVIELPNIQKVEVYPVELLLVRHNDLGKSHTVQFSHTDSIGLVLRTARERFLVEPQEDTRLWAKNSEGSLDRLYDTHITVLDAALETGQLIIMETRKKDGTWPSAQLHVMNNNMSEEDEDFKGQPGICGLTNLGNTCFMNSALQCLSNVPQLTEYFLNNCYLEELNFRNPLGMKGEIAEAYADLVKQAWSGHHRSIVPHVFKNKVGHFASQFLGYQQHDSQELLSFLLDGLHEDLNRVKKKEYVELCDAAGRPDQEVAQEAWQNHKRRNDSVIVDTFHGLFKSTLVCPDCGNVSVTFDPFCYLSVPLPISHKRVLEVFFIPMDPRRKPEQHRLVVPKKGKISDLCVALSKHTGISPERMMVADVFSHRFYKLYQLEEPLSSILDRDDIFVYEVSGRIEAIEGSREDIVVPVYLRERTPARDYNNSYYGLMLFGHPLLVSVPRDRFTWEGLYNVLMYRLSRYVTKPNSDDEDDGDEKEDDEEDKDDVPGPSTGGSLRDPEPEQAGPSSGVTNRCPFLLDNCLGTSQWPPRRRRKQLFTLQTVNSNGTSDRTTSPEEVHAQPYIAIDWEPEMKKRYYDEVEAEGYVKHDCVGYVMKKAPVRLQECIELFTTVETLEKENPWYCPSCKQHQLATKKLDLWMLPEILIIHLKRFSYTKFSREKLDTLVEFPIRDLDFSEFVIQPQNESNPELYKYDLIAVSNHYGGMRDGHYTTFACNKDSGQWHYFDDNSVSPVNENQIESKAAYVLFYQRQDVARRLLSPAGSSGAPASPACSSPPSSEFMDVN
# No constants are given. Whether binding was seen depends on the method and setting. Binding seen in cells or lysates may run through a third protein. Some entries that bind do so weakly or less than the wild type. For some assays here: Sequences can lack the tags named with a protein.
# B1: 3 × Myc‐tagged NONO (entire length) (protein, UniProt Q15233 1-471)
# chain: MQSNKTFNLEKQNHTPRKHHQHHHQQQHHQQQQQQPPPPPIPANGQQASSQNEGLTIDLKNFRKPGEKTFTQRSRLFVGNLPPDITEEEMRKLFEKYGKAGEVFIHKDKGFGFIRLETRTLAEIAKVELDNMPLRGKQLRVRFACHSASLTVRNLPQYVSNELLEEAFSVFGQVERAVVIVDDRGRPSGKGIVEFSGKPAARKALDRCSEGSFLLTTFPRPVTVEPMDQLDDEEGLPEKLVIKNQQFHKEREQPPRFAQPGSFEYEYAMRWKALIEMEKQQQDQVDRNIKEAREKLEMEMEAARHEHQVMLMRQDLMRRQEELRRMEELHNQEVQKRKQLELRQEEERRRREEEMRRQQEEMMRRQQEGFKGTFPDAREQEIRMGQMAMGGAMGINNRGAMPPAPVPAGTPAPPGPATMMPDGTLGLTPPTTERFGQAATMEGIGAIGGTPPAFNRAAPGAEFAPNKRRRY
# B2: endogenous NONO (protein, UniProt Q15233 1-471)
# chain: B1 chain
# Experiments:
# [1] = biological target: T1, 3 × Myc‐tagged NONO (entire length) (UniProt Q15233); test: co-IP; Flag-USP11 and Myc-NONO transfected into HEK293; lysates precipitated with antibodies against Flag or Myc or isotype-matched normal IgG, overnight at 4°C, Protein G Magnetic Beads; Western blot
# T1 sequence: B1 chain
# [2] = biological target: T2, endogenous NONO (human (endogenous in SK-Mel-28 and A375)) (UniProt Q15233); test: co-IP; endogenous proteins in SK-Mel-28 and A375 lysates; precipitated with anti-USP11 or anti-NONO antibody or control IgG; Western blot
# T2 sequence: B1 chain
# [3] = biological target: 3 × Flag‐tagged USP11 (wild‐type USP11, entire length) (UniProt P51784); test: co-IP; Flag-USP11 and Myc-NONO transfected into HEK293; lysates precipitated with antibodies against Flag or Myc or isotype-matched normal IgG, overnight at 4°C, Protein G Magnetic Beads; Western blot
# [4] = biological target: recombinant GST‐USP11 (full length) (UniProt P51784); test: pull-down; GST or GST-USP11 purified from E.coli incubated with equal Myc-NONO expressed in HEK293, loaded onto GST-tag Purification Resin; Myc-NONO in the elution analysed; only the target purified
# [5] = biological target: endogenous USP11 (human (endogenous in SK-Mel-28 and A375)) (UniProt P51784); test: co-IP; endogenous proteins in SK-Mel-28 and A375 lysates; precipitated with anti-USP11 or anti-NONO antibody or control IgG; Western blot
molecule,measurement,setting,value
"3 × Flag‐tagged USP11 (wild‐type USP11, entire length) (from UniProt P51784 1-963) (enzyme)",binding,[1],binds
endogenous USP11 (from UniProt P51784 1-963) (enzyme),binding,[2],binds
B1,binding,[3],binds
same,binding,[4],binds
B2,binding,[5],binds
